Values of other authors as cited in patent US9199026B2, “Modular extracorporeal systems and methods for treating blood-borne diseases” (SOMERSET GROUP ENTERPRISES, INC., priority 2011, dated 2015).

Test system: bacteria
Conditions: first line of the cell pair 'Spectrum, activity'

## O=C(O)c1cn(C2CC2)c2cc(N3CCNCC3)c(F)cc2c1=O [Ciprofloxalin]
  Spectrum: Gram negative,
